In PMC12643531:
These are yes or no findings as the source states them, for the method shown. Binding seen in cells or lysates may run through a third protein. Some binding calls cover weakened binding; strength is not graded here.

Chains of the proteins cited; added tags and fusions are not shown.
UniProt P35631: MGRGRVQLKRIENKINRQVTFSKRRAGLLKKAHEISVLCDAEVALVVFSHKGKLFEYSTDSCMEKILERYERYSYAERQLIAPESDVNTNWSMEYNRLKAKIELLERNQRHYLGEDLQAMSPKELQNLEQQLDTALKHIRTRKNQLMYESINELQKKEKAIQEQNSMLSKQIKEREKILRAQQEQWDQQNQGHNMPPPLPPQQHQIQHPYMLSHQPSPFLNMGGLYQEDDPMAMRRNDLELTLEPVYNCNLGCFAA
UniProt Q8W234: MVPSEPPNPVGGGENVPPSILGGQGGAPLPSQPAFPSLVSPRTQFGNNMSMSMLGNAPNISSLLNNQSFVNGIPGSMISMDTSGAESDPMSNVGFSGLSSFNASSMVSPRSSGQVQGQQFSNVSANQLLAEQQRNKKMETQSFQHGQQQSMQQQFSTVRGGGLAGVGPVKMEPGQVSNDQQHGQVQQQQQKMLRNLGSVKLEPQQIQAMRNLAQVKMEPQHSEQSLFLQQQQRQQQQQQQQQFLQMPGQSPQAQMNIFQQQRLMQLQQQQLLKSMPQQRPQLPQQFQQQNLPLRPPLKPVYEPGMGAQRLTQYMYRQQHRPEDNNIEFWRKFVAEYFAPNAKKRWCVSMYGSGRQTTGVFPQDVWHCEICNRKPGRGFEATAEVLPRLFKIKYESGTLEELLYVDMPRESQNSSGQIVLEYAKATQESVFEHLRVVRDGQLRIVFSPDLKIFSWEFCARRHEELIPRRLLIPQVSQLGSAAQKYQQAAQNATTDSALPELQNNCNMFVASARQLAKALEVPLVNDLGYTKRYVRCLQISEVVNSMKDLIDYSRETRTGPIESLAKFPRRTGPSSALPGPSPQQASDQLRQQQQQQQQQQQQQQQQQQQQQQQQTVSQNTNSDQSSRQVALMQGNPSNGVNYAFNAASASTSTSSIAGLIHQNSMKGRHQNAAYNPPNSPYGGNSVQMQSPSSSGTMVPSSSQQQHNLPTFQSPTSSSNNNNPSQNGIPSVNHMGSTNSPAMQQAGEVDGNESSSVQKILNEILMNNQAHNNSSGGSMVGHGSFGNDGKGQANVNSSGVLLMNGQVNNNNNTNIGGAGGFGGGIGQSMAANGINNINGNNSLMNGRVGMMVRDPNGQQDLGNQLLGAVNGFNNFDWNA

Tests used:
[1] = biological target: APETALA1 (AP1), in vitro translated (Arabidopsis thaliana) (UniProt P35631); assay: co-IP; in vitro: proteins co-synthesized in one tube in wheat germ extract with biotinylated lysine; AP1 or SEP3 as bait precipitated with AP1 or SEP3 antibodies, Protein A MicroBeads, 4°C; Western blot with Streptavidin-Alkaline Phosphatase
[2] = biological target: …3 (SEP3), in vitro translated (Arabidopsis thaliana) (UniProt O22456); assay: as above

binding [1]: binds
binding [2]: binds
Substance: full-length SEU protein, in vitro translated (from UniProt Q8W234 1-877)
